Among the data in paper PMC8598065 are binding values, retold here.

The assay concerns the target T1, MAGEH1 (NP_054780) spotted on the HuProt human protein microarray (human) (UniProt Q9H213).
T1 sequence: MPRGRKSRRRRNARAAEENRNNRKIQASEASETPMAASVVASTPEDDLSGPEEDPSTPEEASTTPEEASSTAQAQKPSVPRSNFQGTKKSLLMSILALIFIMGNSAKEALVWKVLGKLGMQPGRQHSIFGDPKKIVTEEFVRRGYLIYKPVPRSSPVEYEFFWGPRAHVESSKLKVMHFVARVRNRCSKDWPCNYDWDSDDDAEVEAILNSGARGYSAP
The assay can be described thus: peptide or protein array; HuProt human protein microarray (over 19,000 full-length recombinant human proteins); blocked with 5% BSA in PBS with 0.05% tween 20; 3 ug GADD45G protein for 12 hours at 4°C; detected with biotinylated anti-GADD45G antibody and streptavidin Alexa-Fluor 532 nm; both purified.

No constants are given. Whether binding was seen depends on the method and setting. Some binding calls cover weakened binding; strength is not graded here.

B1: GADD45G protein (Abcam) (protein, UniProt O95257 1-159)
chain: MTLEEVRGQDTVPESTARMQGAGKALHELLLSAQRQGCLTAGVYESAKVLNVDPDNVTFCVLAAGEEDEGDIALQIHFTLIQAFCCENDIDIVRVGDVQRLAAIVGAGEEAGAPGDLHCILISNPNEDAWKDPALEKLSLFCEESRSVNDWVPSITLPE
Regarding B1, the binding entry was “binds”.
